{"sequences": {"note": "Chains of the proteins cited; added tags and fusions are not shown.", "UniProt Q13936, whole entry": "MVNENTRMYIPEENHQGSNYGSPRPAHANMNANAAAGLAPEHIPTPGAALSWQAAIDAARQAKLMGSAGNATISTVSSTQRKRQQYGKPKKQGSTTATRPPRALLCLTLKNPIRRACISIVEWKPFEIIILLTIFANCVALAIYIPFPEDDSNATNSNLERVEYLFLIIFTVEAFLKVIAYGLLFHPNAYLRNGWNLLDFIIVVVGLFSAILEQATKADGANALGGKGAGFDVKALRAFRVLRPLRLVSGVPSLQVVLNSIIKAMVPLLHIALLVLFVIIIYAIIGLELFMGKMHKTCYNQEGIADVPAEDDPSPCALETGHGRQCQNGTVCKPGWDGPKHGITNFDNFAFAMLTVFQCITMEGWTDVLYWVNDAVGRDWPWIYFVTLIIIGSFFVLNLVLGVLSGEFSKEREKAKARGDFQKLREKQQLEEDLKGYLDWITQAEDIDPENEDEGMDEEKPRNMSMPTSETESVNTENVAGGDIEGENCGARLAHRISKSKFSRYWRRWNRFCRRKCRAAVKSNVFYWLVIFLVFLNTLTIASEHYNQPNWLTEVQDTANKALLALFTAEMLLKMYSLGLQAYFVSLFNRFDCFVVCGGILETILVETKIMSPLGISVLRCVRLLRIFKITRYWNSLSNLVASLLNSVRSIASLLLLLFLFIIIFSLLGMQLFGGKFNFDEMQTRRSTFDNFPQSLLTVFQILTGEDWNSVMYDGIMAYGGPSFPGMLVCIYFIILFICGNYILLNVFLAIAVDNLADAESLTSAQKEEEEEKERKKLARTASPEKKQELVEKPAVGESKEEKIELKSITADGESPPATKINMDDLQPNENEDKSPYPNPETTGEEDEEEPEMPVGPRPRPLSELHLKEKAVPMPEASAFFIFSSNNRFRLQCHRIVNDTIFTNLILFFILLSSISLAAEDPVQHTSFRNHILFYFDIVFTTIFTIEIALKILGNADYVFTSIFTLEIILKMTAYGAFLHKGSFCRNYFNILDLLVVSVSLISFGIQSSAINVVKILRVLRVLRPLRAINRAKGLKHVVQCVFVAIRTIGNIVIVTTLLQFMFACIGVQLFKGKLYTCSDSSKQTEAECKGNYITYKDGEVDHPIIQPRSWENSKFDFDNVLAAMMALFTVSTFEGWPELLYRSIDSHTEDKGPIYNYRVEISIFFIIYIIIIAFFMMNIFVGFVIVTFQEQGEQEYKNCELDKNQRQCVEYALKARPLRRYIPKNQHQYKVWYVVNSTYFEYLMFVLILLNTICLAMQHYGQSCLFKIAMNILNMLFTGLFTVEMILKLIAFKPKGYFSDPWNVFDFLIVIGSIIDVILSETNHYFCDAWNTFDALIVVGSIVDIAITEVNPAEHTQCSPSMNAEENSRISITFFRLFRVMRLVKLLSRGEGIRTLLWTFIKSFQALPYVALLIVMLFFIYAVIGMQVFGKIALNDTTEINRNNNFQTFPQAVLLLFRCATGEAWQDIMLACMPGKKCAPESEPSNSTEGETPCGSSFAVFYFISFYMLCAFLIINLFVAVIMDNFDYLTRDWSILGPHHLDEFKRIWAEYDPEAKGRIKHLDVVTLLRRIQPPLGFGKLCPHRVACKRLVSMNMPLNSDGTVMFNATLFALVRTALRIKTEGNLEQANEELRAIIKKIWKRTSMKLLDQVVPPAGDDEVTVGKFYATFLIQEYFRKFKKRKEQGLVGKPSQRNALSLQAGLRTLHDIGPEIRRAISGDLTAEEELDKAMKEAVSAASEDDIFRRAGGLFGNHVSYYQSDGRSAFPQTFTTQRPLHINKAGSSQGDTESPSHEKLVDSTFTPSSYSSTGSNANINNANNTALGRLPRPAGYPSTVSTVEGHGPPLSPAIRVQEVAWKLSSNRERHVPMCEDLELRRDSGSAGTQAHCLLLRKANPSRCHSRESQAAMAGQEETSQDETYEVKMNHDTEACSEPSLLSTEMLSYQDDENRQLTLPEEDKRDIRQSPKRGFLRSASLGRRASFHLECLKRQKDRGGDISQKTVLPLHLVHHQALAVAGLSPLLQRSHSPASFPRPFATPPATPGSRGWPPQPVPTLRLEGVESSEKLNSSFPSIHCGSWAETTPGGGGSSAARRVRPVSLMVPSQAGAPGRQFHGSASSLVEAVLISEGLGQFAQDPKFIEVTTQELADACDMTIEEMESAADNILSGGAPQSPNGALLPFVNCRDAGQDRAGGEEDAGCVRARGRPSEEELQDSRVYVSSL"}, "source": "paper PMC10762068", "about": "“Selective blockade of Cav1.2 (α1C) versus Cav1.3 (α1D) L-type calcium channels by the black mamba toxin calciseptine” (Nature Communications, 2024)", "key": {"Cav1.2": {"biological_target": "T1, Cav1.2 (Homo sapiens, UniProt Q13936)", "T1 construct": "expressed in transfected cells; host or cells: HEK-293T", "assay_type": "cell-based", "description": "HEK-293T (RRID:CVCL_2737) were obtained from the European Collection of Authenticated Cell Cultures (ECACC 96121229). The identity of HEK-293T has been confirmed by STR profiling and the cells have been eradicated from mycoplasma at ECACC. We routinely tested the cells for the absence of the mycoplasma contamination. Cells were cultivated at 37 °C in DMEM supplemented with GlutaMax, 10% fetal bovine serum and 1% penicillin/streptomycin (Invitrogen, Fisher Scientific, France). Transfections were performed using jet-PEI (Ozyme, France) with a DNA mix containing either the plasmids that code for Cav1.2-GFP, β2a and α2δ (0.8 µg of each) or either the plasmids that code for Cav1.3 (with and without exon 42a), or Cav2.1, or either Cav2.2 combined with β2a and α2δ (0.8 µg of each supplemented with 0.025 µg of a plasmid coding for GFP). For Cav3.1 expression β2a and α2δ subunits were omitted. Plasmids coding for β2a, α2δ and Cav1.3 were created as described previously. […]\nMacroscopic currents in HEK-293T cells were recorded at room temperature using an Axopatch 200B or Multiclamp 700B patchclamp amplifier (Molecular Devices, Sunnyvale CA). […]\nIn all experiments of cellular electrophysiology, we employed synthetized analog of Cas, commercially available at Latoxan (ID: L8109). […] Its measured molecular mass (7036.26 Da average) was in accordance with the mass calculated from sequence data (7036.22 Da)."}, "[1]": {"test_system": "Cav1.2 (ICav1.2) in isolated adult mouse ventricular myocytes", "assay_type": "cell-based"}}}
{"smiles": "COC(=O)C1=C(C)NC(C)=C(C(=O)OC)C1c1ccccc1[N+](=O)[O-]", "note": "[nifedipine, reference compound]", "values": [{"measurement": "inhibition of ICav1.2 elicited at +150 mV", "setting": "Cav1.2", "value": "partially inhibited"}, {"measurement": "block of residual Ca2+ current by nifedipine after Cas", "setting": "[1]", "value": "blocked residual Ca^2+ current"}, {"measurement": "effect of nifedipine after Cas 1 µM", "setting": "[1]", "value": "failed to have an effect"}]}
